Measurements from the supplement of paper PMC10849652.
The list shows a part of the results.

The chains behind the UniProt entries cited, without tags or fusion partners. Where a name states a change or a piece, a line headed by the entry shows the natural chain unless it says otherwise.
UniProt Q9Y2F5: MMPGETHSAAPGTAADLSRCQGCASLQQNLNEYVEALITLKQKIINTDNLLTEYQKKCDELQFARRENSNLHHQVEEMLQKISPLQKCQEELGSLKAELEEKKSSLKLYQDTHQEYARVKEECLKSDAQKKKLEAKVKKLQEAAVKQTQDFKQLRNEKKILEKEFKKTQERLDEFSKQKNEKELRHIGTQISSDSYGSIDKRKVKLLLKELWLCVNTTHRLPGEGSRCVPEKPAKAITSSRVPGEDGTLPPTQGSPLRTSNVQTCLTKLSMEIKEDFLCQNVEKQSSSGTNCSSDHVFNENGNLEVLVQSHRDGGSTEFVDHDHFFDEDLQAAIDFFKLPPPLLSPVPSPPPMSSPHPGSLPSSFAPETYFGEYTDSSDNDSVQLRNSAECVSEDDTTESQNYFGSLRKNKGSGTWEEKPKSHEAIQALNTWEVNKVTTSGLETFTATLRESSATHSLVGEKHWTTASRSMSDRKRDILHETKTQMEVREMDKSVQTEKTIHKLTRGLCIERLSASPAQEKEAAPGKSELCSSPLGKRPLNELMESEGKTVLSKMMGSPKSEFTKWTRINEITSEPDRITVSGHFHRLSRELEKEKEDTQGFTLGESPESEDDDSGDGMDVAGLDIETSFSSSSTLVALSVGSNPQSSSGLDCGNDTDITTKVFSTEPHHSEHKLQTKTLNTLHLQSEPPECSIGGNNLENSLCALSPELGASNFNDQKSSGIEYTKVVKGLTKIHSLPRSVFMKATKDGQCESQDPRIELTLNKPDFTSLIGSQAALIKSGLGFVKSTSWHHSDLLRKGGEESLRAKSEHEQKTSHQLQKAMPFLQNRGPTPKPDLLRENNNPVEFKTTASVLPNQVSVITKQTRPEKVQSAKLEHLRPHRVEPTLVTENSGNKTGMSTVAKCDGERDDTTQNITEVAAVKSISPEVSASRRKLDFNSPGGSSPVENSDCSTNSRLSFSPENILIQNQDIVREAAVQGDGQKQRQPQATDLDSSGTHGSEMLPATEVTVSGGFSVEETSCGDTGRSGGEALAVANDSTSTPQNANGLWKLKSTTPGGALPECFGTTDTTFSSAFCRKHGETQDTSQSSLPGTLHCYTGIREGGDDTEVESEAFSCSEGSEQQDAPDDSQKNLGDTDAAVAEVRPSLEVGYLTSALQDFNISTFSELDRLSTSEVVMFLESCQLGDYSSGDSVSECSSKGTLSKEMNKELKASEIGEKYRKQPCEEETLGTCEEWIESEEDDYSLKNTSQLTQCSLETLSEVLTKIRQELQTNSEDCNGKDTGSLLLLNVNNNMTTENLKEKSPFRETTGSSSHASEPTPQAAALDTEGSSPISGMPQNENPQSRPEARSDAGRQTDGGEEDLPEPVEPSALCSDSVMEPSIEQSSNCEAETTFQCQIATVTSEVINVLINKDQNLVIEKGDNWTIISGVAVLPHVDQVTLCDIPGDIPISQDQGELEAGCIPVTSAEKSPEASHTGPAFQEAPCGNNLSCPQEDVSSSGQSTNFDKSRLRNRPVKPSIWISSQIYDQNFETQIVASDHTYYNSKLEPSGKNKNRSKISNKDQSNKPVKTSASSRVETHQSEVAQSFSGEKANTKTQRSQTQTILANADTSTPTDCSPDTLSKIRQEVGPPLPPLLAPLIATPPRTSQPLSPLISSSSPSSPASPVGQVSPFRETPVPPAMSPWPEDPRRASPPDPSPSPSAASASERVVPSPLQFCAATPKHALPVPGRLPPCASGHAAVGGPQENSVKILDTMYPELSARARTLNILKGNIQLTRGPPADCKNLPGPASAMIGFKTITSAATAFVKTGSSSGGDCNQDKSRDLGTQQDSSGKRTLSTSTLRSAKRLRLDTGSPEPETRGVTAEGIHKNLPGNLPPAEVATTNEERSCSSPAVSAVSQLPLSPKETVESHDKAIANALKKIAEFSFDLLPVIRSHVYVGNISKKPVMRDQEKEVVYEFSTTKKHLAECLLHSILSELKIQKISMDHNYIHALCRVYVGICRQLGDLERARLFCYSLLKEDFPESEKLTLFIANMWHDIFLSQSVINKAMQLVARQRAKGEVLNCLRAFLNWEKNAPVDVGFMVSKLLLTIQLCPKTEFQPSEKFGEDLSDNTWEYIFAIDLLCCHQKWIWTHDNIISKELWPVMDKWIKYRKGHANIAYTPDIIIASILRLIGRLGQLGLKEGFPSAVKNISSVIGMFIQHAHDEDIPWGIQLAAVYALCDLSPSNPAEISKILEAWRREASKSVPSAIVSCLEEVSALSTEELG
UniProt P30939: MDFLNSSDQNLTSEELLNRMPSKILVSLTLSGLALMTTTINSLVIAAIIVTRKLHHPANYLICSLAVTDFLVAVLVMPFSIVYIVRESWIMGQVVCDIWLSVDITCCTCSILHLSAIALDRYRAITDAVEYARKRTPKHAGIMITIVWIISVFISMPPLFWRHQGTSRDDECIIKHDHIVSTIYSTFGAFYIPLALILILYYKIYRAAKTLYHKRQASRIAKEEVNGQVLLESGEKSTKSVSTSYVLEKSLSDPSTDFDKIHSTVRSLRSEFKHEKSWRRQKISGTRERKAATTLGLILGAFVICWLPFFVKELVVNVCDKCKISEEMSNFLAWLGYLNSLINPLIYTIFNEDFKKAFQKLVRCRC
UniProt Q05084: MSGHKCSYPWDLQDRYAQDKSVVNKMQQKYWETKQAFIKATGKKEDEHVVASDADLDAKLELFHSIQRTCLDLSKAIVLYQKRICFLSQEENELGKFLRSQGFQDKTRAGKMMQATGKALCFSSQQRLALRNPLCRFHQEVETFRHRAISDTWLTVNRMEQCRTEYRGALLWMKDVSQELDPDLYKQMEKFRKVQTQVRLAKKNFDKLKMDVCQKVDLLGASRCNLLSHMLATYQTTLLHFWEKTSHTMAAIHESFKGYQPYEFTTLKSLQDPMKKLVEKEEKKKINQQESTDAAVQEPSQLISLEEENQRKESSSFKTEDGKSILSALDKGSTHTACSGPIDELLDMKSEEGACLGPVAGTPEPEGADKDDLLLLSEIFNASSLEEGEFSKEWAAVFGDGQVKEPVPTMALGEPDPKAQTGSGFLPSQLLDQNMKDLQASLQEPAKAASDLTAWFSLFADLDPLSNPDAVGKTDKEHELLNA
UniProt Q96ED9: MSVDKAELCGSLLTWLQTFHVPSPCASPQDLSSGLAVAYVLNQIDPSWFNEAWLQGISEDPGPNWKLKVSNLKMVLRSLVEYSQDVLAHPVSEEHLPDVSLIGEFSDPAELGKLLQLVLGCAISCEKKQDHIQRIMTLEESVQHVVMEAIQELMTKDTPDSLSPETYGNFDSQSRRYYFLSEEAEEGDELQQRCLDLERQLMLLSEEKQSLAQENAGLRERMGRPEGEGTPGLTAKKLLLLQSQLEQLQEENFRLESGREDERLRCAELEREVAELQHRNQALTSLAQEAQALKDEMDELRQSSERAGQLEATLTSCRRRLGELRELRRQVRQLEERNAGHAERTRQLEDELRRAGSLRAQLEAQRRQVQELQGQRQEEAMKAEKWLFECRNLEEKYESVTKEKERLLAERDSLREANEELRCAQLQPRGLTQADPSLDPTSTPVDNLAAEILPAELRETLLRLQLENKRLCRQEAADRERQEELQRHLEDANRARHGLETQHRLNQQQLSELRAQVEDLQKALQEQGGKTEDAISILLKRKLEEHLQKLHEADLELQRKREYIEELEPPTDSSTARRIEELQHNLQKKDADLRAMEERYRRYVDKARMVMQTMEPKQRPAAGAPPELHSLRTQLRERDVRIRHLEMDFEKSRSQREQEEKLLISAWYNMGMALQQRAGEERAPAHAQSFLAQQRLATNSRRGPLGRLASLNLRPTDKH
UniProt O43390: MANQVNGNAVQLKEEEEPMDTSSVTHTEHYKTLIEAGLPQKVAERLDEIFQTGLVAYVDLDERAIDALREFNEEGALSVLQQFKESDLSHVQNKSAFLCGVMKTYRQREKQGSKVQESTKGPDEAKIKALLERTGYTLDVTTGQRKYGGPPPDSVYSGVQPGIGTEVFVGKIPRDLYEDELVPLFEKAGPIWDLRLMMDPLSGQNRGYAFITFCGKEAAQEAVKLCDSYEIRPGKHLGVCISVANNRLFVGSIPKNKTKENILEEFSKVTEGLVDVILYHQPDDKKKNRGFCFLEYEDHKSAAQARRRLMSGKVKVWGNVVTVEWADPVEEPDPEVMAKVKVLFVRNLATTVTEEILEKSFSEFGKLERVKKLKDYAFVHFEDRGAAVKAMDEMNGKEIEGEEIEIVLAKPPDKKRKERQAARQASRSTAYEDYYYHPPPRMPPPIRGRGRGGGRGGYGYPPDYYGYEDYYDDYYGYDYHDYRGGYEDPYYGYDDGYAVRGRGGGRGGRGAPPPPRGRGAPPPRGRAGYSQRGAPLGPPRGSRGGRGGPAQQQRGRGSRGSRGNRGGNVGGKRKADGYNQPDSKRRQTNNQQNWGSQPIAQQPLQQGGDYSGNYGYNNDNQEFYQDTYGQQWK
UniProt Q53T59: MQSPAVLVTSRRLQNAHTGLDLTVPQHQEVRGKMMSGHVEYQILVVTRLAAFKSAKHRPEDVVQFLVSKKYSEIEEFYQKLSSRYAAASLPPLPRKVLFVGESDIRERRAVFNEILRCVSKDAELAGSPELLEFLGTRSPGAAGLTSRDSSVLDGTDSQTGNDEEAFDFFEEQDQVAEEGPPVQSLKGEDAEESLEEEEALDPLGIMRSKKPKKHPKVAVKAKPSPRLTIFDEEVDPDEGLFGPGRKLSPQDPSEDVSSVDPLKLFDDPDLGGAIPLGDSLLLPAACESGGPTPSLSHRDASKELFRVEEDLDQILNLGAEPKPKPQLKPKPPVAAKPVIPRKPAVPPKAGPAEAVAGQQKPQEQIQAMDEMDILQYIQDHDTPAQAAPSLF
UniProt Q9Y241: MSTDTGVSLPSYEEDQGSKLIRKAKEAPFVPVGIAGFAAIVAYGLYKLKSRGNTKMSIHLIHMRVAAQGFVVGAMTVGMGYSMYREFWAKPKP
UniProt O60725, whole entry, looked up: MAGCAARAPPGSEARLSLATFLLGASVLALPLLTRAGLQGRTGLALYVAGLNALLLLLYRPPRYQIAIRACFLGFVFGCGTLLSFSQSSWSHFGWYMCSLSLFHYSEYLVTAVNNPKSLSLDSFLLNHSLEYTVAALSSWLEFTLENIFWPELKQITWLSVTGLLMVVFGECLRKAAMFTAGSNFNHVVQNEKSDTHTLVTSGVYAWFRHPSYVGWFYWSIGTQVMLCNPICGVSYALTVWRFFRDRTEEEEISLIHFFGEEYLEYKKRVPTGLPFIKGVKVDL

How the values were obtained:
Experiment in all cases: log2 fold change, soluble protein after heating vs DMSO (PISA); higher = thermal stabilisation; K562 cells, 10 uM, 30 min; active = over 0.2 and 3.5 SD of the protein, either way, in both replicates (recomputed)
[1] = compound: Cc1ccc(NC(=O)c2ccc(CN3CC[C@H](N(C)C)C3)c(C(F)(F)F)c2)cc1Nc1nccc(-c2cncnc2)n1 [bafetinib]
Summary of the method: (§1)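 K562 cells at 2×10^6 cells/mL were given 10 μM compound for 30 min. Aliquots then went through 3 min of heating across 48°C-58°C, were pooled, and were extracted in PBS with 0.5% NP-40 at 4°C, and the supernatant after 21,000xg for 90 min was quantified by TMTpro 16plex LC-MS/MS with channel sums equalised. Thermal stability relative to control samples, from duplicates, is given as log2 fold change.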

[2] = compound: Cc1cn(-c2cc(NC(=O)c3ccc(C)c(Nc4nccc(-c5cccnc5)n4)c3)cc(C(F)(F)F)c2)cn1 [nilotinib]
Summary of the method: as §1

[3] = compound: Cc1nc(Nc2n[nH]c3c2CN(C(=O)N[C@H](CN(C)C)c2ccccc2)C3(C)C)c2sccc2n1
Summary of the method: as §1

[4] = compound: Cc1ncc(-c2ccnc(Nc3ccc(S(C)(=O)=O)cc3)n2)n1C(C)C
Summary of the method: as §1

[5] = compound: FC(F)(F)c1ccc(/C=C/c2nc(COc3ccc(CCCCn4ccnn4)cc3)co2)cc1 [mubritinib]
Summary of the method: as §1

[6] = compound: Cc1cccc(CC(=O)N2CCc3c2ccc(-c2cn(C)c4ncnc(N)c24)c3F)n1
Summary of the method: as §1

[7] = compound: Cn1cc(-c2ccc3c(c2)CCN3C(=O)Cc2cccc(C(F)(F)F)c2)c2c(N)ncnc21
Summary of the method: as §1

[8] = compound: Cc1nc(Nc2ncc(C(=O)Nc3c(C)cccc3Cl)s2)cc(N2CCN(CCO)CC2)n1 [dasatinib]
Summary of the method: as §1

[9] = compound: Cn1cc(-c2ccc3nnc(C(F)(F)c4ccc5ncccc5c4)n3n2)cn1
Summary of the method: as §1

[10] = compound: Cn1cncc1[C@@](N)(c1ccc(Cl)cc1)c1ccc2c(c1)c(-c1cccc(Cl)c1)cc(=O)n2C [tipifarnib]
Summary of the method: as §1

Measured: log2 fold change

ICE1 (UniProt Q9Y2F5)
inactive: [1] -0.119 | [2] -0.107 | [3] 0.067 | [4] 0.012 | [5] 0.093

HTR1F (UniProt P30939)
inactive: [6] -0.16 | [7] 0.125

ICA1 isoform 2 (UniProt Q05084)
inactive: [6] -0.035 | [8] 0.034 | [7] 0.047 | [9] 0.112

HOOK2 (UniProt Q96ED9)
inactive: [7] 0.209 | [10] -0.02

HNRNPR (UniProt O43390)
inactive: [1] -0.024 | [2] 0.066 | [3] -0.02 | [4] 0.015 | [7] -0.323 | [10] 0.302 | [5] -0.109

HS1BP3 (UniProt Q53T59)
inactive: [1] -0.022 | [2] -0.023 | [3] -0.104 | [8] -0.047 | [4] -0.029 | [7] 0.062 | [9] -0.067 | [10] -0.038

HIGD1A isoform 2 (UniProt Q9Y241)
inactive: [1] -0.019 | [2] 0.001 | [3] 0.107 | [4] -0.047 | [9] 0.179 | [5] -0.177

ICMT (UniProt O60725)
inactive: [1] -0.103 | [2] 0.049 | [3] 0.17 | [8] 0.065 | [4] -0.003 | [9] 0.113 | [10] 0.107 | [5] 0.284

HUWE1 isoform 2 (UniProt Q7Z6Z7)
inactive: [8] -0.041 | [7] 0.013
